# Data reported in PubChem BioAssay AID540256 (National Center for Advancing Translational Sciences (NCATS), 2011).
# In all, about 300,000 compounds went through this assay and about 3,700 (1.2%) were called active. The inconclusive results got no clear call from the source; some entries with a clear call stand among them for comparison. The call rests on the fitted dose curve; tested in HEK293 cells. A potency beside an inconclusive call is a rough fit, not a confirmed value.
# Assay: qHTS for Inhibitors of binding or entry into cells for Lassa Virus; further: nearly all actives have a fitted effect of over 50% in size
# Conditions: Lassa virus pseudotype entry inhibition, cell reporter; activity change, negative = inhibition: at 37.9 µM (top of the series) unless noted
# On the % scale 0 is the no-effect control and ±100 the full control effect; potency means the concentration at half of the fitted maximal effect.
Structure (SMILES),Potency,"activity change, negative = inhibition"
CC1Sc2ccc(S(=O)(=O)N3CCC(C(=O)NCC(C)c4ccccc4)CC3)cc2NC1=O (stereo not drawn),"inconclusive: 3.55 µM [inhibitor, partial curve]",
CCCN(CCC)c1nc2ccccc2nc1C(C#N)C(=O)OC(C)COC (stereo not drawn),"inconclusive: 1.26 µM [inhibitor, full curve]",
Cc1ccc(C)c(NC(=O)Cn2c(=O)nc(-c3ccccc3)c3ccccc32)c1,"inconclusive: 4.47 µM [inhibitor, full curve, poor fit]",
CN1CCN(C(=O)COc2ccc3ccccc3c2)CC1,,inactive: 24.1%
S=c1[nH]nc(-c2ccco2)n1Cc1ccccc1,"inconclusive: 0.891 µM [inhibitor, single point]",
Cc1cccc(NS(=O)(=O)c2ccc3c(c2)[C@H]2C=CC[C@H]2[C@@H](c2ccc(F)cc2)N3)c1,,inactive: 1.09% [at 46.1 µM]
O=C(C(=O)N1CCN(c2ccccc2)CC1)c1cn(CC(=O)N2CCCCCC2)c2ccccc12,"inconclusive: 6.31 µM [inhibitor, partial curve, poor fit]",
COc1cc(OC)nc(Oc2cc(C=O)ccc2OC)n1,"inconclusive: 2.82 µM [inhibitor, single point]",
COc1cccc(C(=O)Nc2cccc(NC(=O)c3ccc(Cl)cc3Cl)c2)c1,"inconclusive: 14.1 µM [inhibitor, single point]",
Cc1[nH]c2ccccc2c1C(=O)CSc1nc2ccccc2[nH]1,"inconclusive: 1.83 µM [activator, full curve, poor fit]",
Cc1ccc(C)c(N2CCN(C(=O)c3cc4c(=O)n(Cc5ccco5)ccc4nc3C)CC2)c1,,inactive: -13.8% [at 46.1 µM]
O=S(=O)(NCc1c(Cl)cccc1Oc1ccccc1)c1ccccc1,"inconclusive: 20 µM [inhibitor, single point]",
COc1ccc(OC)c(Cc2nnc(CCC(=O)NCc3ccc(C)s3)o2)c1,,inactive: 1.16% [at 46.1 µM]
CCOc1ccc(C2c3[nH]c4ccccc4c3CCN2Cc2cccn2-c2ncccn2)cc1 (stereo not drawn),"inconclusive: 5.62 µM [inhibitor, full curve, poor fit]",
Cc1cc(NCCCn2ccnc2)n2ncc(-c3ccc(Cl)cc3)c2n1,"inconclusive: 3.66 µM [inhibitor, single point]",
COc1ccc(S(=O)(=O)Nc2ccc3oc4c(c3c2)C(=O)CC(C)(C)C4)cc1,"inconclusive: 11.2 µM [inhibitor, partial curve, poor fit]",
COc1ccc(N2CCN(C(=O)C3Cc4ccccc4CN3C(=O)c3ccccc3)CC2)cc1 (stereo not drawn),,inactive: 16.5%
Cc1nnc(NC(=O)Nc2ccc(Cl)c(Cl)c2)s1,"inconclusive: 32.6 µM [inhibitor, single point]",
COc1ccc(C(=O)NNC(=O)CSc2nnnn2-c2cc(OC)cc(OC)c2)cc1,,inactive: 12.2%
O=c1[nH]c2cc3c(cc2cc1CN(Cc1ccccc1)Cc1nnnn1Cc1ccco1)OCCO3,"inconclusive: 22.4 µM [inhibitor, single point]",
CCc1ccc(OCCNC(=O)c2ccccc2SCc2ccc(F)cc2)cc1,"inconclusive: 35.5 µM [inhibitor, single point]",

# 19 of the compounds above, bar-delimited:
Structure (SMILES) | Potency | activity change, negative = inhibition
CC1Sc2ccc(S(=O)(=O)N3CCC(C(=O)NCC(C)c4ccccc4)CC3)cc2NC1=O (stereo not drawn) | inconclusive: 3.55 µM [inhibitor, partial curve] | 
CCCN(CCC)c1nc2ccccc2nc1C(C#N)C(=O)OC(C)COC (stereo not drawn) | inconclusive: 1.26 µM [inhibitor, full curve] | 
Cc1ccc(C)c(NC(=O)Cn2c(=O)nc(-c3ccccc3)c3ccccc32)c1 | inconclusive: 4.47 µM [inhibitor, full curve, poor fit] | 
CN1CCN(C(=O)COc2ccc3ccccc3c2)CC1 |  | inactive: 24.1%
Cc1cccc(NS(=O)(=O)c2ccc3c(c2)[C@H]2C=CC[C@H]2[C@@H](c2ccc(F)cc2)N3)c1 |  | inactive: 1.09% [at 46.1 µM]
O=C(C(=O)N1CCN(c2ccccc2)CC1)c1cn(CC(=O)N2CCCCCC2)c2ccccc12 | inconclusive: 6.31 µM [inhibitor, partial curve, poor fit] | 
COc1cc(OC)nc(Oc2cc(C=O)ccc2OC)n1 | inconclusive: 2.82 µM [inhibitor, single point] | 
COc1cccc(C(=O)Nc2cccc(NC(=O)c3ccc(Cl)cc3Cl)c2)c1 | inconclusive: 14.1 µM [inhibitor, single point] | 
Cc1[nH]c2ccccc2c1C(=O)CSc1nc2ccccc2[nH]1 | inconclusive: 1.83 µM [activator, full curve, poor fit] | 
Cc1ccc(C)c(N2CCN(C(=O)c3cc4c(=O)n(Cc5ccco5)ccc4nc3C)CC2)c1 |  | inactive: -13.8% [at 46.1 µM]
COc1ccc(OC)c(Cc2nnc(CCC(=O)NCc3ccc(C)s3)o2)c1 |  | inactive: 1.16% [at 46.1 µM]
CCOc1ccc(C2c3[nH]c4ccccc4c3CCN2Cc2cccn2-c2ncccn2)cc1 (stereo not drawn) | inconclusive: 5.62 µM [inhibitor, full curve, poor fit] | 
Cc1cc(NCCCn2ccnc2)n2ncc(-c3ccc(Cl)cc3)c2n1 | inconclusive: 3.66 µM [inhibitor, single point] | 
COc1ccc(S(=O)(=O)Nc2ccc3oc4c(c3c2)C(=O)CC(C)(C)C4)cc1 | inconclusive: 11.2 µM [inhibitor, partial curve, poor fit] | 
COc1ccc(N2CCN(C(=O)C3Cc4ccccc4CN3C(=O)c3ccccc3)CC2)cc1 (stereo not drawn) |  | inactive: 16.5%
Cc1nnc(NC(=O)Nc2ccc(Cl)c(Cl)c2)s1 | inconclusive: 32.6 µM [inhibitor, single point] | 
COc1ccc(C(=O)NNC(=O)CSc2nnnn2-c2cc(OC)cc(OC)c2)cc1 |  | inactive: 12.2%
O=c1[nH]c2cc3c(cc2cc1CN(Cc1ccccc1)Cc1nnnn1Cc1ccco1)OCCO3 | inconclusive: 22.4 µM [inhibitor, single point] | 
CCc1ccc(OCCNC(=O)c2ccccc2SCc2ccc(F)cc2)cc1 | inconclusive: 35.5 µM [inhibitor, single point] | 

# The listing continues:

Structure (SMILES),Potency,"activity change, negative = inhibition"
O=S(=O)(c1ccccc1)N1CCN(c2cccc(Cl)c2)CC1,"inconclusive: 0.562 µM [inhibitor, full curve, poor fit]",
Cc1cccc(N=C2NC(=O)/C(=C/c3cccs3)S2)c1,"inconclusive: 3.16 µM [inhibitor, partial curve, poor fit]",
O=C(OCCOCCOC(=O)Oc1ccccc1)Oc1ccccc1,"inconclusive: 1.41 µM [activator, partial curve, poor fit]",
CCOc1ccccc1NC(=O)c1c(NCc2ccc(C)o2)sc2c1CCC(C)C2 (stereo not drawn),"inconclusive: 35.5 µM [activator, single point]",
Cc1ccc(N2C(N)=C(C#N)C(c3ccsc3)C3=C2CC(C)(C)CC3=O)cc1 (stereo not drawn),"inconclusive: 35.5 µM [inhibitor, single point]",
Cc1cc(C)n2nc(-c3ccc(F)cc3)nc2n1,"inconclusive: 11.2 µM [activator, partial curve, poor fit]",
CCOc1ccc(CCNCc2c(C(=O)O)n(Cc3ccc(C)cc3)c3cc(OC)ccc23)cc1,"inconclusive: 8.91 µM [inhibitor, partial curve, poor fit]",
COc1ccc(/C=C2\SC(=S)N(CCC(=O)Nc3ccc(O)cc3)C2=O)cc1,"inconclusive: 11.2 µM [inhibitor, partial curve, poor fit]",
COc1ccc(NC(=O)C(=O)NNC(=O)c2cccs2)cc1,,inactive: 1.46%
CC(=O)c1sc2nsc(SCCN3CCCCC3)c2c1N,"inconclusive: 25.1 µM [inhibitor, single point]",
CCCN1CCN(C(=O)c2ccccc2-c2nc3ccccc3s2)CC1,"inconclusive: 3.55 µM [activator, full curve, poor fit]",
O=C(N/N=C/c1ccc(O)cc1O)/C(=C/c1ccccc1)CCO,"inconclusive: 7.94 µM [inhibitor, partial curve]",
COc1cccc(-n2ncc3c(NN=Cc4ccc(S(C)(=O)=O)cc4)ncnc32)c1,"inconclusive: 39.7 µM [inhibitor, single point]",
CCn1ccc(C(=O)Nc2ccccc2SC)n1,"inconclusive: 20 µM [activator, single point]",
Cc1ccccc1C(OCCN(C)C)C1CCCCC1 (stereo not drawn),"inconclusive: 14.6 µM [inhibitor, partial curve, poor fit]",
Oc1c(C=Nc2ccccc2Cl)[nH]c2ccccc12,"inconclusive: 10 µM [inhibitor, partial curve, poor fit]",
O=C1CN(Cc2nc3cc(Cl)ccc3c(=O)[nH]2)CCN1,"inconclusive: 6.31 µM [activator, partial curve, poor fit]",
COc1ccc(CN2CCN(S(=O)(=O)c3ccc(F)cc3)CC2)cc1OC,,inactive: -24.2%
COc1ccc(-c2[nH]ncc2N=Nc2cc(C)cc(C)c2)cc1,"inconclusive: 11.2 µM [inhibitor, partial curve, poor fit]",
Cc1nc(-c2ccc(S(=O)(=O)N3CCCN(CCc4ccccc4)CC3)s2)cs1,"inconclusive: 35.5 µM [inhibitor, single point]",
CN(Cc1c(O)ccc2c1oc(=O)c1ccccc12)C1CCCCC1,,inactive: -2.94%

Structure (SMILES),Potency,"activity change, negative = inhibition"
CCOc1ccccc1C(=O)N[C@H](C(=O)OCc1csc(CC(=O)Nc2ccc(C)cc2)n1)C(C)C,"inconclusive: 35.5 µM [inhibitor, single point]",
COc1ccc(CNC(=O)C(c2ccco2)N(Cc2cccs2)C(=O)Cc2cccs2)cc1 (stereo not drawn),"inconclusive: 29.1 µM [inhibitor, single point]",
CN(CCN1CCOCC1)C(=O)c1cc(COc2ccc(F)c(F)c2)on1,"inconclusive: 2.82 µM [activator, partial curve]",
COc1ccc(-c2nc(-c3ccccn3)no2)cc1,"inconclusive: 0.92 µM [inhibitor, full curve, poor fit]",
COC(=O)[C@@]1(Cc2ccccc2)[C@H]2c3cc(C(=O)N4CCCC4)n(Cc4ccsc4Br)c3C[C@H]2CN1C(=O)c1ccccc1,"inconclusive: 29.1 µM [inhibitor, single point]",
CN(C)/C=N/C(=S)Nc1ccc(Cl)cc1Cl,"inconclusive: 35.5 µM [inhibitor, single point]",
COc1ccc(C2=NN(C(=O)c3cccs3)C(O)(C(F)(F)F)C2)cc1 (stereo not drawn),"inconclusive: 10 µM [inhibitor, partial curve, poor fit]",
O=c1[nH]c(CN2CCN(S(=O)(=O)c3ccccc3C(F)(F)F)CC2)nc2sc3c(c12)CCCC3,"inconclusive: 20 µM [inhibitor, single point]",
CCC(C)(C)n1nnnc1C(c1cc2cc(C)ccc2[nH]c1=O)N1CCCC1 (stereo not drawn),,inactive: 15.2% [at 14.3 µM]
Cc1cccc(NC(=O)CN2C(=O)CNC2=O)c1,,inconclusive: 11.4% [activator]
COc1cccc(NC(=O)c2cc(-c3ccco3)nc3ccccc23)c1,"inconclusive: 35.5 µM [activator, single point]",
O=C1CC(N2CCN(C/C=C/c3ccccc3)CC2)C(=O)N1CCc1ccccc1 (stereo not drawn),,inactive: -32.9%
Cc1ccc(-c2nc(CSCC(=O)NCCN3CCN(Cc4ccccc4)CC3)c(C)o2)cc1,"inconclusive: 32.6 µM [inhibitor, single point]",
O=C(OC1CCOC1=O)c1ccc(CO)cc1 (stereo not drawn),,inactive: -7.76% [at 46.1 µM]
O=S(=O)(c1ccccc1F)N1CCC(Oc2ccc(-n3cnnn3)cc2)CC1,"inconclusive: 3.98 µM [activator, single point]",
COCC(C)NC(=O)c1ccc(-n2nc(C(F)(F)F)cc2-c2cccs2)cc1 (stereo not drawn),"inconclusive: 29.1 µM [inhibitor, single point]",
O=C(N/N=C/c1sc(N2CCOCC2)nc1-c1ccccc1)c1ccccc1Cl,"inconclusive: 35.5 µM [inhibitor, single point]",
CN1CCN(C(=O)c2cc(COc3ccc(F)cc3Cl)on2)CC1c1ccccc1 (stereo not drawn),"inconclusive: 10 µM [inhibitor, partial curve, poor fit]",
CCOC(=O)CNC(=O)CSc1ncnc2c1cnn2-c1ccccc1,"inconclusive: 31.6 µM [inhibitor, single point]",
Cc1nc(Nc2ccccc2C)c2cnn(C)c2n1,"inconclusive: 0.562 µM [activator, single point]",
CCCC(=O)N=C1SC2CS(=O)(=O)CC2N1c1ccc(-c2nc3ccc(C)cc3s2)cc1 (stereo not drawn),"inconclusive: 0.794 µM [activator, partial curve, poor fit]",
